Experimental data reported in PMC6584689.

Target: T1, Flag-LKB1 (FL) (UniProt Q15831)
T1 sequence: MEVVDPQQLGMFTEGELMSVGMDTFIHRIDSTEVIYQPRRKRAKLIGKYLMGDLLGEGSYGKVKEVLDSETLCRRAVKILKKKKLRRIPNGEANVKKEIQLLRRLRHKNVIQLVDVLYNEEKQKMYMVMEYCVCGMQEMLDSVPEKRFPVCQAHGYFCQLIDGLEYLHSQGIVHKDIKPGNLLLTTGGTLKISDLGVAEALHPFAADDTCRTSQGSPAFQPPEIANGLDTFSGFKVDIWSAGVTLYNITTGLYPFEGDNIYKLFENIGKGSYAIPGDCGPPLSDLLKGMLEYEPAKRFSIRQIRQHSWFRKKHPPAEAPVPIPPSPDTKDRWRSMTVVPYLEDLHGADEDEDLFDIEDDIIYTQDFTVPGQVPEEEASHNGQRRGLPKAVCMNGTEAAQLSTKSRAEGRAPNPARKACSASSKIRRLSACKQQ
Assay: co-IP; transfected 293T cells lysed in RIPA buffer (50 mM Tris-HCl pH 7.6, 150 mM NaCl, 1 mM EDTA, 1% NP-40); Flag-tagged bait precipitated with anti-Flag M2 Affinity Gel at 4 °C overnight; washed three times with PBST; western blot

binding: binds
Substance: FBXO22ΔF (domain or fragment)

Results are given in words; binding and its absence hold for the method and conditions named. In cells and extracts the contact can be indirect. Binding calls can cover weak binding; strength is not graded here. Sequences can lack the tags named with a protein.
